# PubChem BioAssay AID1347076 (National Center for Advancing Translational Sciences (NCATS), 2019)
# Screen size: about 400,000 compounds; about 13,000 (3.2%) were called active. The inconclusive results got no clear call from the source; some entries with a clear call stand among them for comparison. Calls follow the shape of the dose curve; as a rule, active = well fitted cell-killing curve with a large enough effect; inconclusive = small, poorly fitted or top-dose-only effect, or effect the other way; inactive = flat fitted curve, though single readings scatter. Potencies beside an inconclusive call are fits to weak or partial responses and may not hold up.
# Test: qHTS assay for MDR1-selective chemotherapeutics: Primary screen using the drug-selected MDR subline cells KB-V1; also: nearly all actives have a fitted effect of over 60% in size
# Conditions: KB-V1 MDR cells viability, CellTiter-Glo, 72 h; series mostly up to 46.1 µM
# Summary of the method: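 Luminescent ATP read-out (CellTiter-Glo, 10 min) measures survival of drug-selected KB-V1 MDR cells after 72 h, 37 degrees C compound exposure. Medium: phenol-red-free DMEM, 10% FBS. Values from fitted concentration-response curves.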
# Potency is read from the fitted curve at half-maximal effect.
row,Structure (SMILES),Potency
1,CCOc1ccc(/C=N/NC(=O)Cc2csc(Nc3cccc(C(F)(F)F)c3)n2)cc1,"inconclusive: 29.1 µM [cytotoxic, single point]"
2,O=S1(=O)CC(O)C(NCc2ccco2)C1 (configuration not stated),inactive
3,CC(=O)c1c(C)n(-c2ccccc2)c2ccc(O)cc12,"inconclusive: 20.6 µM [cytotoxic, single point]"
4,Cc1cc(C(=O)CSc2nnnn2-c2ccccc2)c(C)n1-c1ccc2c(c1)OCO2,active: 7.31 µM
5,Cn1c(=O)[nH]c(=O)c2c1nc(Br)n2Cc1ccccc1Cl,"inconclusive: 29.1 µM [cytotoxic, single point]"
6,O=C(NCC1CCCO1)/C(=C\c1ccc(Cl)cc1)NC(=O)c1ccccc1 (configuration not stated),"inconclusive: 0.0206 µM [rising, full curve]"
7,CC(O)C(NS(=O)(=O)c1ccc(Cl)cc1)C(=O)OCc1nnc(-c2ccccc2)o1 (configuration not stated),"inconclusive: 20.6 µM [rising, single point]"
8,CC(C)N1CCC1(C)C(=O)Nc1ccccc1OC(F)F (configuration not stated),inactive
9,COc1ccc(CCNC(=O)C(=O)c2cn(CC(=O)N3CCCC3)c3ccccc23)cc1OC,"inconclusive: 32.6 µM [cytotoxic, single point]"
10,Cc1cc(C)n(-c2nc3ccccc3nc2N2CCN(c3cccc(C)c3C)CC2)n1,inactive
11,c1ccc(/N=C2\N=C(Nc3ccccn3)c3ccccc32)nc1,active: 2.91 µM
12,CC1C(=O)N(Cc2cn(CCC3OCCCO3)nn2)CCS(=O)(=O)N1Cc1ccc(-c2ccc(F)cc2)cc1 (configuration not stated),inactive
13,COc1ccc(NC(=O)COC(=O)c2cc(Cl)ccc2O)cc1S(=O)(=O)N1CCCCC1,"inconclusive: 25.9 µM [cytotoxic, single point]"
14,O=C(CCc1ccccc1)Nc1cc2c(cc1C(=O)O)OCCCO2,inactive
15,Cc1ccc(C(=O)Nc2c[nH]c(=O)[nH]c2=O)cc1,"inconclusive: 29.1 µM [cytotoxic, partial curve, poor fit]"
16,Cc1ccccc1C(=O)N1CCN(c2ccc([N+](=O)[O-])c(NCc3ccco3)c2)CC1,"inconclusive: 18.4 µM [cytotoxic, partial curve]"
17,COc1cccc(C(C(=O)NC2CCCC2)N(C(=O)c2ccco2)c2ccccc2)c1OC (configuration not stated),"inconclusive: 8.2 µM [cytotoxic, partial curve]"
18,C[C@@H]1CN([C@H](C)CO)C(=O)CCCn2nncc2CO[C@@H]1CN(C)C(=O)C1CC1,"inconclusive: 25.9 µM [cytotoxic, partial curve, poor fit]"
19,Cc1cccc(OCc2nnc(SCC(=O)N3CCN(c4ccccc4)CC3)o2)c1C,"inconclusive: 4.11 µM [cytotoxic, full curve]"
20,CC12CCC(C(=O)N(c3ccc(Cl)cc3)C1=O)C2(C)C (configuration not stated),"inconclusive: 5.8 µM [rising, full curve, poor fit]"
21,CCS(=O)(=O)N1CCC(NC(=O)C(Cc2ccc(OC)c(OC)c2)NC(C)=O)CC1 (configuration not stated),inactive
22,CC1CC2(C)Oc3ccccc3CC2C(C)C1CNCCCN(C)C (configuration not stated),active: 18.4 µM
23,CCOC(=O)C1=C(COC(=O)/C=C/c2ccc(OC)cc2)NC(=O)NC1C (configuration not stated),"inconclusive: 20.6 µM [cytotoxic, single point]"
24,CCc1ccc(C(=O)CN(C#N)c2nc(C)cc(C)n2)cc1,"inconclusive: 35.5 µM [cytotoxic, single point]"

row,Structure (SMILES),Potency
1,Nc1cc2c3c(cccc3c1)C(=O)N(CCN1CCCC1)C2=O,active: 23.1 µM
2,Cc1ccc(NC(=O)CC2SC(=O)N(c3ccccc3)C2=O)cc1 (configuration not stated),"inconclusive: 29.1 µM [rising, single point]"
3,Cc1ccc(N=C2c3ccccc3C(=O)C2[N+](=O)[O-])cc1C (configuration not stated),inactive
4,c1cncc(-c2nc(NCC3COc4ccccc4O3)c3ccccc3n2)c1 (configuration not stated),"inconclusive: 29.1 µM [cytotoxic, single point]"
5,CC(C)(C)Sc1ccc(/C=N/O)cc1[N+](=O)[O-],active: 23.1 µM
6,COc1ccccc1C(=O)n1nc(-c2ccco2)nc1SC,"inconclusive: 7.31 µM [rising, partial curve]"
7,c1ccc2cc3c(NCCN4CCOCC4)ccnc3cc2c1,"inconclusive: 18.4 µM [cytotoxic, single point]"
8,Cc1cccc(NC(=O)c2sc3nc4c(c(-c5cccs5)c3c2N)CN(C)CC4)c1,inactive
9,CC(C)(C)NC(=O)C(=O)NNC(=O)c1cccc(F)c1,inactive
10,Cc1cc(S(=O)(=O)N2CCN(c3ccccc3F)CC2)ccc1-n1cnnn1,active: 20.6 µM
11,CCOC(=O)N1CCN(C(=O)CS(=O)Cc2nc(-c3ccc(OC)c(OC)c3)oc2C)CC1 (configuration not stated),inactive
12,COc1ccc(OC)c(C(=O)c2coc3ccc(O)cc23)c1,active: 10.3 µM
13,Cc1ccc(Cn2cnc3ccccc32)cc1C,active: 20.6 µM
14,CN1CC2=Cc3ccccc3OC23Oc2ccccc2C=C3C1,"inconclusive: 29.1 µM [cytotoxic, single point]"
15,CC(NC(=O)[C@H](Cc1c[nH]c2ccccc12)NC(=O)[C@@H]1Cc2ccccc2CN1)c1ccccc1 (some centres not stated),inactive
16,O=C(c1cc(-c2ccc3c(c2)OCO3)on1)N1CCN(c2ccccc2)CC1,"inconclusive: 29.1 µM [cytotoxic, single point]"
17,Cc1ccc2nc(-c3ccc4c(c3)NC(=O)CO4)cn2c1,"inconclusive: 11.6 µM [cytotoxic, partial curve, poor fit]"
18,COc1ccccc1/C=C/C(=O)Nc1ccc2c(c1)OCCO2,active: 20.6 µM
19,CCN(CC)CCN(C(=O)c1ccc2c(c1)OCCO2)c1nc2c(Cl)cccc2s1,inactive
20,O=C(Nc1ccc(C(=O)NC2CCCCC2)cc1)c1cncc(Br)c1,"inconclusive: 20.6 µM [cytotoxic, partial curve, poor fit]"
21,CC(C)c1ccc(N(C(=O)c2snc(C(N)=O)c2N)C(C(=O)NCC2CCCO2)c2ccc(N(C)C)cc2)cc1 (configuration not stated),active: 20.6 µM
22,Cn1c(N)c(C(=O)COC(=O)c2ccnc3ccccc23)c(=O)n(C)c1=O,"inconclusive: 16.4 µM [cytotoxic, single point]"
23,CCOc1ccc(-n2c(CC)nc3c(cnn3-c3ccc(Cl)cc3)c2=O)cc1,"inconclusive: 20.6 µM [cytotoxic, partial curve, poor fit]"
24,Cc1cc(C(=O)N2CCC2(C)C(=O)NCc2cccc3ccccc23)nn1C (configuration not stated),"inconclusive: 16.4 µM [cytotoxic, partial curve, poor fit]"

# Molecules above that contain bromine (2):
row,Structure (SMILES),Potency
5,Cn1c(=O)[nH]c(=O)c2c1nc(Br)n2Cc1ccccc1Cl,"inconclusive: 29.1 µM [cytotoxic, single point]"
20,O=C(Nc1ccc(C(=O)NC2CCCCC2)cc1)c1cncc(Br)c1,"inconclusive: 20.6 µM [cytotoxic, partial curve, poor fit]"

# Following part:

row,Structure (SMILES),Potency
1,O=C(NC1CCCCC1)C(c1cccs1)N(C(=O)C(F)(F)F)c1ccccc1 (configuration not stated),inactive
2,O=C(CN1CCN(c2ccccc2O)CC1)Nc1ccnn1C1CCCC1,inactive
3,COCC(C)n1c(C)cc(C(=O)CSc2cc(C)c3ccccc3n2)c1C (configuration not stated),"inconclusive: 9.2 µM [cytotoxic, partial curve]"
4,Cc1ccc(C(=O)NCC(=O)NCC(=O)OCC(=O)c2cccs2)cc1,"inconclusive: 10.3 µM [rising, partial curve]"
5,CCN(CC)S(=O)(=O)c1ccc(-c2cn3cc(Cl)ccc3n2)cc1,"inconclusive: 16.4 µM [cytotoxic, partial curve]"
6,Cc1cc(C(=O)OCC(=O)Nc2ncc(C(F)(F)F)cc2Cl)c(C)o1,inactive
7,Cc1oc(-c2cccc(Cl)c2)nc1CN1CCCC(C(=O)N2CCN(c3ccc(F)cc3)CC2)C1 (configuration not stated),inactive
8,Cc1cccc(Cn2c(C)c(CNC3CCCCCC3)c(C(=O)O)c2C)c1,"inconclusive: 8.2 µM [rising, partial curve, poor fit]"
9,COc1c(Cl)cc(C(=O)N(Cc2ccc(C)o2)C2CCS(=O)(=O)C2)cc1Cl (configuration not stated),inactive
10,Cc1cc(=O)oc2cc(OC(C)C(=O)Nc3ccc(C(N)=O)cc3)ccc12 (configuration not stated),inactive
11,O=C(Nc1ccc2nc3n(c(=O)c2c1)CCCCC3)c1ccccn1,inactive
12,Cc1ccc(C(=O)O/N=C(\N)c2ccccn2)c(C)c1,"inconclusive: 20.6 µM [cytotoxic, single point]"
13,O=C(Nc1ccc2oc(-c3ccc4ccccc4c3)nc2c1)c1ccc2c(c1)OCCO2,active: 2.59 µM
14,CN(Cc1ccccc1F)c1cc2c(c3c1ccn3C)C1CCC2O1 (configuration not stated),"inconclusive: 29.1 µM [cytotoxic, single point]"
15,O=C(N1CCOCC1)N1CCN(S(=O)(=O)c2ccc(Cl)cc2)C1,"inconclusive: 29.1 µM [rising, single point]"
16,Cc1nn(CC(=O)Nc2cc(F)ccc2F)c(=O)c2cccn12,inactive
17,CC(C)(C)C(=O)NC(=S)Nc1ccccc1F,inactive
18,COc1cc(CC(=O)Nc2cc(S(=O)(=O)N3CCOCC3)ccc2N2CCCC2)cc(OC)c1OC,"inconclusive: 18.4 µM [cytotoxic, single point]"
19,CCc1ccccc1N(C)S(=O)(=O)c1ccc2[nH]cc(C(=O)N3CCc4ccccc43)c(=O)c2c1,inactive
20,COc1cccc(CNc2ncnc3nc[nH]c23)c1,"inconclusive: 29.1 µM [rising, single point]"
21,COc1ccc(-c2csc(NC3OC(=O)c4ccccc43)n2)cc1 (configuration not stated),"inconclusive: 14.6 µM [cytotoxic, partial curve, poor fit]"
22,O=C(NCc1ccc2c(c1)CCN2C(=O)c1ccc(F)cc1)c1ccco1,inactive
23,Cn1c(OCc2cccnc2)nc2c1c(=O)n(Cc1ccc(Br)cc1)c(=O)n2C,"inconclusive: 20.6 µM [cytotoxic, partial curve]"
24,CCCCOc1ccc(C2CC(=O)NC2=O)cc1 (configuration not stated),"inconclusive: 18.4 µM [cytotoxic, partial curve, poor fit]"
